{"source": "ChEMBL document CHEMBL1144547", "about": "“Synthesis, antimalarial, antileishmanial, antimicrobial, cytotoxicity, and methemoglobin (MetHB) formation activities of new 8-quinolinamines” (Bioorg Med Chem, 2007)", "test_system": "Candida albicans", "test": "Antifungal activity against Candida albicans ATCC 90028 after 18 to 24 hrs", "format": "functional, organism-based"}
{"smiles": "C[C@@H]1[C@H](O)[C@@H](C)/C=C/C=C/C=C/C=C/C=C/C=C/C=C/[C@H](O[C@@H]2O[C@H](C)[C@@H](O)[C@H](N)[C@@H]2O)C[C@@H]2O[C@](O)(C[C@@H](O)C[C@@H](O)[C@H](O)CC[C@@H](O)C[C@@H](O)CC(=O)O[C@H]1C)C[C@H](O)[C@H]2C(=O)O", "note": "[AMPHOTERICIN B]", "values": [{"measurement": "MIC", "value": 0.63, "unit": "µg/mL"}]}
